Some of the results follow. These are further read-outs of the screen, such as a control signal, another cell line or another target. No call is given for them. The list favours compounds with an active or inconclusive main result. Potencies come from curve fits of mixed quality, noted in brackets.
Test: qHTS Assay for Lipid Storage Modulators in Drosophila S3 Cells;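 for cell number change: cells counted by Cell Tracker Red CMTPX staining in the red channel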
Settings: BODIPY lipid droplet fluorescence, 18-24 h; for cell number change: measured here: cell count max response, cells fed with added oleic acid
Summary of the method: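 Laser-scanning cytometry quantifies lipid droplet accumulation (500–530 nm total intensity; droplet/cell object ratio) in oleic acid-fed (400 uM added) Drosophila S3 cells treated with a concentration series. 20 uM Triacsin C defined 100% inhibition.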

[1] = measured here: cell number channel AC50, cells fed with added oleic acid
[2] = measured here: lipid fluorescence (Fed channel) AC50, cells fed with added oleic acid

Compound | cell number change [%] | AC50 [1] | AC50 [2]
CCNC(=O)C(=O)NCC1OCCCN1S(=O)(=O)c1cccs1 (configuration not stated) | -1.44 | 6.51 µM [rising, single point] | 25.9 µM [falling, partial curve, poor fit]
O=C(C1CCN(S(=O)(=O)c2ccc(-n3cnnn3)cc2)CC1)N1CCCCC1 | -3.17 | – | 6.51 µM [falling, single point]
Clc1cccc(/C=N\Nc2nccs2)c1 | -27.6 | – | –
COc1cc2c(cc1OC)C(C)N(S(=O)(=O)c1cccs1)CC2 (configuration not stated) | -16.2 | – | 29.1 µM [falling, single point]
CCOC(=O)C1=C(C)N=c2s/c(=C\c3ccncc3)c(=O)n2C1c1ccc2c(c1)OCO2 (configuration not stated) | -44.9 | 7.31 µM [falling, full curve, poor fit] | 0.291 µM [rising, partial curve]
O=[N+]([O-])c1cc(Cl)c2cccnc2c1O | -6.37 | 2.59 µM [rising, single point] | –
O=C(CS(=O)CC(=O)N(CC(=O)NC1CCCC1)C1CCCCC1)Nc1ccc(F)cc1 (configuration not stated) | 0.612 | – | 0.206 µM [falling, full curve, poor fit]
CN=C(Cc1ccccc1)C1=C(O)CC(C)(C)CC1=O | 17.2 | – | 6.51 µM [rising, single point]
Cc1ccc(S(=O)(=O)NN2C(=O)c3ccccc3NC2c2ccccc2F)cc1 (configuration not stated) | 26.9 | – | 0.13 µM [falling, full curve]
CCOC(=O)C1CCCN(C(=O)c2cc3cc4ccc(OC)cc4nc3o2)C1 (configuration not stated) | 0.59 | 4.61 µM [rising, single point] | –
Clc1ccccc1-c1nc(-c2cccnc2)no1 | -5.61 | – | 0.146 µM [falling, full curve, poor fit]
NS(=O)(=O)c1ccc(-c2ccc(/C=N/NC(=O)c3ccc([N+](=O)[O-])cc3)o2)cc1 | – | 0.092 µM [rising, full curve, poor fit] | –
O=C(Nc1ccc(Br)cc1Br)c1cccc2c1C(=O)N(C1CCCCC1)C2 | 63 | 16.4 µM [rising, partial curve] | 25.9 µM [rising, partial curve]
CCC(=O)N1CCN=C1SCc1cccc(F)c1 | 5.95 | 1.64 µM [rising, partial curve] | –
CCn1nc(C)c(/C=N/NC(=O)CSc2ccccn2)c1C | – | 0.326 µM [rising, full curve, poor fit] | 0.00461 µM [rising, full curve, poor fit]
CC(=O)OC(C(=O)NC1CCCCC1)c1cccc(F)c1 (configuration not stated) | 13.7 | – | 0.103 µM [falling, full curve, poor fit]
O=C(/C=C/c1cccc(F)c1)NCCCn1ccnc1 | 0.567 | – | 0.517 µM [rising, partial curve]
CC(=O)OCC1O[C@@H](O[C@@H]2C[C@H]3C(C)(C)[C@H](OC(C)=O)CC[C@]3(C)[C@H]3CC[C@]45C[C@]4(CC[C@H]5[C@@H](C)C[C@@H](O)[C@H](O)C(C)(C)O)[C@@]32C)[C@H](O)[C@@H](O)[C@@H]1O (some centres not stated) | -88.8 | 10.3 µM [falling, partial curve] | 6.51 µM [falling, partial curve]
CCCNC(=O)C(Cc1ccccc1)NC(=O)c1ccc(C(F)(F)F)cc1 (configuration not stated) | -13.4 | – | 1.64 µM [rising, partial curve]
COc1ccccc1N1CCN(CC(O)COc2ccc(C)cc2C)CC1 (configuration not stated) | 30.6 | 5.17 µM [rising, partial curve] | –
O=[N+]([O-])c1ccc(N2CCOCC2)cc1NC(c1ccccc1)c1ccccc1 | -16.7 | 0.651 µM [falling, single point] | 0.731 µM [falling, full curve, poor fit]
O=C(Nc1ccc(S(=O)(=O)Nc2ccc(F)cc2)cc1)c1ccc(CN2CCOCC2)cc1 | -13.1 | – | 6.51 µM [falling, single point]
CN(C(=O)Cn1c(=O)oc2cc(S(=O)(=O)N3CCCC3)ccc21)C1CCCCC1 | – | – | 4.11 µM [rising, single point]
COc1ccc(C(C)=O)cc1CN1C(=O)NC2(CCCCC2)C1=O | – | 5.8 µM [rising, single point] | 6.51 µM [rising, partial curve, poor fit]
CCOC(=O)C1CCN(C(=O)C(=O)c2cn(CC(=O)N3CCCCCC3)c3ccccc23)CC1 | -8.8 | – | 29.1 µM [falling, single point]
CCOC(=O)c1ccc(S(=O)(=O)N2CCN(C(=O)c3nn(C)c(=O)c4ccccc34)CC2)cc1 | 71.7 | – | –
CCc1ccccc1OCC(=O)Nc1cccc(S(=O)(=O)NC2=NCCCCC2)c1 | -8.56 | – | 29.1 µM [falling, single point]

An excerpt from above in order of molar mass, largest number first:
Compound | cell number change [%] | AC50 [1] | AC50 [2]
O=C(Nc1ccc(Br)cc1Br)c1cccc2c1C(=O)N(C1CCCCC1)C2 | 63 | 16.4 µM [rising, partial curve] | 25.9 µM [rising, partial curve]
O=C(CS(=O)CC(=O)N(CC(=O)NC1CCCC1)C1CCCCC1)Nc1ccc(F)cc1 (configuration not stated) | 0.612 | – | 0.206 µM [falling, full curve, poor fit]
Clc1ccccc1-c1nc(-c2cccnc2)no1 | -5.61 | – | 0.146 µM [falling, full curve, poor fit]

Next structures

Compound | cell number change [%] | AC50 [1] | AC50 [2]
CCc1cccc2c(C(=O)CSc3nncn3-c3ccc(OC)cc3)c[nH]c12 | 34.4 | 14.6 µM [rising, single point] | –
CCc1nnc(NC(=O)[C@@H](NC(=O)c2ccc(C(C)(C)C)cc2)C(C)C)s1 | -27.8 | – | 14.6 µM [falling, partial curve]
CCn1cc(C(=O)OCc2cccc(Br)c2)c(=O)c2ccc(C)nc21 | 106 | 1.16 µM [rising, full curve] | 1.46 µM [rising, full curve]
O=C1CC2(CCN(C(=O)c3c(F)cccc3F)CC2)Oc2ccccc21 | -49.1 | 5.8 µM [falling, full curve, poor fit] | 6.51 µM [falling, full curve, poor fit]
O=C(Nc1nnc(C(F)(F)F)s1)c1ccc(Br)s1 | -41.5 | – | 16.4 µM [falling, partial curve, poor fit]
COc1ccc(OC)c(-c2cc(C(=O)Nc3c(C)nn(Cc4ccccc4Cl)c3C)no2)c1 | -0.348 | – | 2.31 µM [rising, single point]
COc1ccc(CCNC(=O)Cc2ccsc2)cc1 | – | – | 29.1 µM [rising, single point]
CN(C)S(=O)(=O)c1ccc(Cl)c(C(=O)NC2CCN(Cc3ccccc3)C2)c1 (configuration not stated) | 4.2 | – | –
S=C(Nc1ccc2nsnc2c1)N1CCCCCC1 | 19.2 | – | 0.206 µM [falling, full curve, poor fit]
COc1ccc(C(=O)C2CCCN(Cc3cccn3-c3ccc(Cl)cn3)C2)c(OC)c1 (configuration not stated) | -40.3 | 16.4 µM [falling, single point] | 29.1 µM [falling, single point]
CC1(OC(=O)CCc2ccccc2)C(=O)C=C2C=C(c3ccc(C#N)cc3)N(CCN3CCOCC3)C=C2C1=O (configuration not stated) | 22.6 | – | 0.184 µM [rising, full curve, poor fit]
Cc1ccc2cc3c(N)c(C(=O)N4CC(=O)Nc5ccccc54)sc3nc2c1 | 1.15 | – | 29.1 µM [falling, single point]
CC(C)(C)OC(=O)CC12CCCCC1NC(=O)O2 (configuration not stated) | 6.8 | – | 1.46 µM [rising, partial curve]
O=c1cc(N2CCc3ccccc32)[nH]c(=O)n1-c1ccc(Br)cc1 | 29.6 | – | 2.06 µM [rising, partial curve, poor fit]
CCC(C)C(=O)N1CCc2cc(-c3csc(N)n3)ccc21 (configuration not stated) | 9.82 | – | 9.2 µM [rising, partial curve]
Cn1c(N2CCN(c3ccccn3)CC2)nc2c1c(=O)n(Cc1ccc(Cl)cc1)c(=O)n2C | -3.35 | – | 0.517 µM [rising, partial curve]
O=C(CSc1nnc(-c2cccnc2)o1)Nc1cccc(Cl)c1 | 42.3 | 13 µM [rising, partial curve, poor fit] | 1.84 µM [falling, full curve]
Cc1ccc(-c2nc(=O)[nH]c3ccccc23)cc1 | 27.5 | – | –
O=S(=O)(c1ccccc1)N1CCC(n2cnc3ccccc32)CC1 | -5.56 | – | –
COc1cc(/C=C/c2ccc3c(Br)cc(Br)c(O)c3n2)ccc1O | -26.6 | 2.91 µM [falling, single point] | 3.26 µM [falling, full curve]
CCN(CC)S(=O)(=O)c1ccc(N(C)CCc2ccc(OC)c(OC)c2)nc1 | – | 0.58 µM [rising, single point] | 29.1 µM [rising, single point]
O=C(NCc1ccccc1)NC1(C(=O)N2CCN(c3ncccn3)CC2)CCCCC1 | -30.8 | 32.6 µM [falling, single point] | 1.84 µM [falling, full curve]
CC(=O)c1ccccc1NC(=O)COC(=O)CSCC(=O)Nc1cc(C)on1 | -20.4 | – | 8.2 µM [falling, partial curve, poor fit]
Cc1ccc2nc(SCC(=O)Nc3cccc(S(=O)(=O)NC4=NCCCCC4)c3)[nH]c2c1 | -28.3 | – | 29.1 µM [falling, single point]
CC(C)c1nc2sc3c(=S)nc[nH]c3c2c2c1CCC2 | 17.9 | 0.00461 µM [rising, full curve, poor fit] | 0.00461 µM [rising, full curve, poor fit]
O=C(CC(=O)NCc1ccc(Cl)cc1)NCc1ccccc1 | 18.1 | 7.31 µM [rising, single point] | –
O=C(C1CCC1)N1CCc2cc(S(=O)(=O)N3CCCCC3)ccc21 | 234 | 0.146 µM [rising, single point] | –
